Results are given in words; binding and its absence hold for the method and conditions named. In cells and extracts the contact can be indirect. Some entries that bind do so weakly or less than the wild type. For some assays here: Where a sequence is shown, tags or fusion partners need not be part of it.

Test [1] has as its target T1, endogenous mitoNEET protein (mouse (endogenous in NMuMG)) (UniProt Q91WS0).
T1 sequence: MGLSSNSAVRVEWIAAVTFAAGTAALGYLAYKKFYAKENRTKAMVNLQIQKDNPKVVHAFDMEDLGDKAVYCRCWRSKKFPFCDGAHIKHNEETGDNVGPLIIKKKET
In words: co-IP.

Test [2] addresses T2, mitoNEET tagged with HA in its C-terminus (mouse, full length) (mouse) (UniProt Q91WS0).
T2 sequence: T1 sequence
As to the kind of experiment: co-IP.

B1: prohibitin (protein, UniProt P67778 1-272)
chain: MAAKVFESIGKFGLALAVAGGVVNSALYNVDAGHRAVIFDRFRGVQDIVVGEGTHFLIPWVQKPIIFDCRSRPRNVPVITGSKDLQNVNITLRILFRPVASQLPRIYTSIGEDYDERVLPSITTEILKSVVARFDAGELITQRELVSRQVSDDLTERAATFGLILDDVSLTHLTFGKEFTEAVEAKQVAQQEAERARFVVEKAEQQKKAAIISAEGDSKAAELIANSLATAGDGLIELRKLEAAEDIAYQLSRSRNITYLPAGQSVLLQLPQ
Consider B1, for which the binding entry in test [1] and in test [2] was “binds” each time.

The values are drawn from doi:10.1101/2024.07.29.603210.
